Source: PubChem BioAssay AID1259425 (University of Nebraska Medical Center, 2018)
Purpose: 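Compare each knockdown with KSR1 silencing using changes in marker transcripts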 (primary screen). Cells: HCT116 human colon cancer cells. Reagents: siRNA pool against human genes, 50 nM siRNA. Read-out: 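After 50 nM siRNA pool, branched-DNA assay measures six marker transcripts per well, minus blank, normalised to the geometric mean of two housekeeping transcripts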. Scale: BNIP3L mRNA: higher = more BNIP3L transcript after knockdown; NDRG1 mRNA: higher = more NDRG1 transcript after knockdown; BNIP3 mRNA: higher = more BNIP3 transcript after knockdown; ALDOC mRNA: higher = more ALDOC transcript after knockdown; ACSL5 mRNA: higher = more ACSL5 transcript after knockdown.
The whole screen tested about 14,000 reagents; shown is a random part of them. Not given: the time to read-out.

target gene	BNIP3L mRNA, set 1	NDRG1 mRNA, set 1	BNIP3 mRNA, set 1	ALDOC mRNA, set 1	ACSL5 mRNA, set 1
ACOXL (GeneID 55289)	0.13	0.258	0.541	0.0976	0.29
ADAMTS8 (GeneID 11095)	0.0742	0.15	0.292	0.0198	0.074
DMRTA2 (GeneID 63950)	0.0625	0.138	0.126	0.0242	0.188
PRKCZ (GeneID 5590)	0.204	0.919	0.595	0.0144	0.585
OAZ2 (GeneID 4947)	0.0589	0.135	0.281	0.0529	0.213
TUBA4A (GeneID 7277)	0.124	0.388	0.419	0.0118	0.245
SCN3B (GeneID 55800)	0.111	0.17	0.311	0.0271	0.275
RALGAPB (GeneID 57148)	0.166	0.142	0.328	0.0406	0.251
SLC66A2 (GeneID 80148)	0.103	0.167	0.236	0.0275	0.134
MAN2B2 (GeneID 23324)	0.062	0.207	0.115	0.0323	0.16
CEP55 (GeneID 55165)	0.273	0.225	0.907	0.0388	0.257
FH (GeneID 2271)	0.102	0.107	0.277	0.0194	0.176
TMEM185A (GeneID 84548)	0.0876	0.123	0.169	0.0185	0.379
TKTL2 (GeneID 84076)	0.222	0.216	0.43	0.0356	0.459
RAB7A (GeneID 7879)	0.125	0.204	0.261	0.0431	0.184
DAZ4 (GeneID 57135)	0.0922	0.128	0.216	0.0182	0.217
ABCF2 (GeneID 10061)	0.0941	0.134	0.262	0.0759	0.0877
EPS15L1 (GeneID 58513)	0.0769	0.343	0.218	0.0245	0.225
THOC7 (GeneID 80145)	0.0913	0.269	0.251	0.0355	0.135
MRPL40 (GeneID 64976)	0.305	0.273	1.29	0.0944	0.14
TPRA1 (GeneID 131601)	0.15	0.097	0.307	0.0535	0.134
ECRG4 (GeneID 84417)	0.0813	0.107	0.197	0.0315	0.194
TSG101 (GeneID 7251)	0.0702	0.203	0.271	0.0226	0.135
ZNF33B (GeneID 7582)	0.0736	0.183	0.221	0.0198	0.142
USP21 (GeneID 27005)	0.124	0.283	0.233	0.0397	0.22
CDC16 (GeneID 8881)	0.196	0.222	0.296	0.0159	0.178
RUSF1 (GeneID 64755)	0.0731	0.515	0.341	0.0368	0.144
DRD4 (GeneID 1815)	0.0993	0.0518	0.257	0.0169	0.0805
POLDIP2 (GeneID 26073)	0.0971	0.173	0.474	0.0417	0.0499
ADAM11 (GeneID 4185)	0.053	0.0917	0.186	0.0188	0.0984
NUAK2 (GeneID 81788)	0.178	0.767	0.171	0.0233	0.266
MTCP1 (GeneID 4515)	0.203	0.239	0.579	0.0461	0.143
OLFML2B (GeneID 25903)	0.141	0.242	0.482	0.0505	0.188
GNGT2 (GeneID 2793)	0.0364	0.208	0.224	0.0228	0.11
CD209 (GeneID 30835)	0.0893	0.0801	0.355	0.0228	0.125
NXPE4 (GeneID 54827)	0.112	0.185	0.262	0.0265	0.195
GNG5 (GeneID 2787)	0.172	0.167	0.426	0.0379	0.198
RPL17 (GeneID 6139)	0.195	0.084	0.375	0.00983	0.13
ZNF416 (GeneID 55659)	0.138	0.644	0.509	0.0261	0.189
MT-ATP8 (GeneID 4509)	0.0924	0.257	0.258	0.0233	0.136
WNK4 (GeneID 65266)	0.123	0.155	0.561	0.0136	0.315
PRR16 (GeneID 51334)	0.118	0.448	0.326	0.0286	0.382
GRAMD2B (GeneID 65983)	0.147	0.774	0.265	0.0372	0.392
PRR11 (GeneID 55771)	0.0404	0.114	0.278	0.0137	0.28
RPRM (GeneID 56475)	0.177	0.0942	0.352	0.0304	0.177
SYNCRIP (GeneID 10492)	0.183	0.0927	0.173	0.0202	0.218
CDC25B (GeneID 994)	0.111	0.175	0.345	0.0347	0.193
ZNF33A (GeneID 7581)	0.0759	0.104	0.264	0.0108	0.225
MPPE1 (GeneID 65258)	0.174	0.314	0.268	0.0232	0.0914
MAGEA12 (GeneID 4111)	0.156	0.195	0.426	0.02	0.087

Part of the list above, reformatted.
target gene,"BNIP3L mRNA, set 1","NDRG1 mRNA, set 1","BNIP3 mRNA, set 1","ALDOC mRNA, set 1","ACSL5 mRNA, set 1"
SYNCRIP (GeneID 10492),0.183,0.0927,0.173,0.0202,0.218
CDC25B (GeneID 994),0.111,0.175,0.345,0.0347,0.193
ZNF33A (GeneID 7581),0.0759,0.104,0.264,0.0108,0.225
MPPE1 (GeneID 65258),0.174,0.314,0.268,0.0232,0.0914
MAGEA12 (GeneID 4111),0.156,0.195,0.426,0.02,0.087
